# Laboratory results reported in PubChem BioAssay AID504467 (National Center for Advancing Translational Sciences (NCATS), 2011).
# In all, about 330,000 compounds went through this assay and about 7,700 (2.3%) were called active. Inconclusive results, whose numbers are uncertain, are shown with a selection of clear calls. Calls follow the shape of the dose curve; as a rule, active = well fitted inhibition curve with a large enough effect; inconclusive = small, poorly fitted or top-dose-only effect, or effect the other way; inactive = flat fitted curve, though single readings scatter. A potency beside an inconclusive call is a rough fit, not a confirmed value.
# Assay: qHTS screen for small molecules that inhibit ELG1-dependent DNA repair in human embryonic kidney (HEK293T) cells expressing luciferase-tagged ELG1; also: nearly all actives have a fitted effect of over 55% in size
# Conditions: HEK293T ELG1-luciferase reporter, luminescence, 16 h, DNA damage induced by 5-fluorouridine; activity change, negative = inhibition: at 46.1 µM (top of the series)
# Summary of the method: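 Luminescence from the luciferase reporter, measured 30 min after ONE-Glo reagent at room temperature, was the read-out. Beforehand, 2,000 cells per well were exposed for 16 hr at 37 °C to 5-fluorouridine together with compound or vehicle.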
# % is scaled to controls: 0 for no effect and ±100 for the full control effect; potency is read from the fitted curve at half-maximal effect.
Compound,Potency,"activity change, negative = inhibition"
CCCCCOc1ccc(C(=O)CCN2CCOCC2)cc1,"inconclusive: 14.6 µM [activator, single point]",–
O=c1c2ccccc2oc2ccc(NCCCn3ccnc3)cc12,"inconclusive: 1.83 µM [activator, full curve]",–
CCOc1ccc(C(=O)OCC(=O)N2CC(C)OC(C)C2)cc1OCC (centres undefined),–,inactive: 8.86%
COc1ccc(-c2cc(C(F)(F)F)nc(SCC(=O)NCc3ccco3)n2)cc1OC,active: 23.1 µM,–
CC(C)Sc1nnc(Nc2ccccc2)s1,"inconclusive: 9.2 µM [activator, partial curve]",–
Cc1ccccc1C(=O)Nc1nnc(SCC(=O)NC2CC2)s1,"inconclusive: 16.4 µM [activator, partial curve]",–
CC(C)(C)OC(=O)N1CCC(CC2CC(c3cccc(Br)c3)=NO2)(C(=O)NCC2CCCCC2)CC1 (centres undefined),–,inactive: 0%
O=C(CCNS(=O)(=O)c1ccccc1C(F)(F)F)N1CCN(C(c2ccccc2)c2ccccc2)CC1,–,inactive: -15.4%
COc1ccc(-c2cc3cccc(OC)c3oc2=O)cc1,"inconclusive: 1.46 µM [activator, partial curve]",–
CC1CCC(=O)N(CCOc2ccccc2)CC1 (centres undefined),"inconclusive: 29.1 µM [activator, single point]",–
O=S(=O)(c1ccc(Br)cc1)c1cnc2ccccc2n1,"inconclusive: 25.9 µM [activator, single point]",–
Cc1ccc(NC2=NC3(CCCC3)N=C(N)N2)c(C)c1,–,inactive: -15.9%
O=C1CC(c2ccccc2)CC(=O)C1CS(=O)(=O)c1ccccc1 (centres undefined),–,inactive: 0.457%
O=C(Nc1cccc(S(=O)(=O)N2CCCCCC2)c1)C1CCN(C(=O)c2ccc(Cl)cc2)CC1,"inconclusive: 15.8 µM [inhibitor, single point]",–
CCC(=O)c1ccc(OCC(=O)Nc2ccc(N3CCOCC3)cc2N2CCOCC2)cc1,"inconclusive: 4.61 µM [inhibitor, partial curve]",–
O=S(=O)(NCC1CCCO1)c1ccc(-c2ccc(Cl)cc2)cc1 (centres undefined),"inconclusive: 4.61 µM [inhibitor, single point]",–
CN1CCN(CCCNC(=O)c2cc3c(-c4ccc(Cl)cc4)nn(C)c3s2)CC1,"inconclusive: 18.4 µM [activator, single point]",–
Cc1cc(C)cc(N(CC(=O)NCc2cccnc2)S(C)(=O)=O)c1,–,inactive: -0.931%
COc1cccc(OC(=O)N2CCOCC2)c1,"inconclusive: 20.6 µM [activator, single point]",–
CCc1nc2c(sc3nc4c(cc32)COC(C)(C)C4)c(=O)n1Cc1ccccc1,–,inactive: -4.97%
CN1CCC(N(C)C(=O)c2cc(S(=O)(=O)N(C)c3ccccc3)ccc2Cl)CC1,–,inactive: 0%
COc1ccc(CN(C)C(=O)c2cc(S(=O)(=O)Nc3ccccc3F)ccc2C)c(OC)c1,–,inactive: -18.6%
COc1ccc(/C=C/C(=O)c2ccccn2)cc1,"inconclusive: 18.3 µM [activator, single point]",–
O=C1CCCc2ccccc2N1Cc1ccccc1Cl,–,inactive: -14.8%
O=C(COc1ccccc1)N1CCc2ccccc2C1,"inconclusive: 7.31 µM [activator, single point]",–

Compound,Potency,"activity change, negative = inhibition"
COc1ccc(N2CCN(CCC(=O)c3ccc4ccccc4c3)CC2)cc1,–,inactive: 0%
CCCNC(=O)c1ccccc1NC(=O)c1ccc2c(=O)n3c(nc2c1)CCC3,"inconclusive: 0.92 µM [activator, full curve, poor fit]",–
COc1ccccc1N1CCN(/N=C/c2ccc(Cl)c([N+](=O)[O-])c2)CC1,"inconclusive: 16.4 µM [activator, partial curve]",–
O=C(COc1ncnc2sccc12)NC1CCCCC1,"inconclusive: 2.06 µM [activator, partial curve, poor fit]",–
Cc1cnn(-c2nc(-c3ccccc3)cc(-c3ccccc3)n2)c1,active: 20.6 µM,–
Cc1cc(NC(=O)Nc2ccc(C)c(C)c2)no1,"inconclusive: 16.4 µM [activator, single point]",–
COc1ccc(-c2nc3n(c2C)CCC3)cc1,"inconclusive: 23.1 µM [activator, partial curve]",–
COC(=O)Nc1ccc2c(c1)N(C(=O)CCCl)c1ccccc1S2,–,inactive: -0.854%
COCC(=O)Nc1ccc(-c2cn3cccnc3n2)cc1,"inconclusive: 23.1 µM [activator, single point]",–
Cc1ccc(C(=O)c2sc3nc4c(cc3c2N)CCC4)cc1,"inconclusive: 5.17 µM [activator, partial curve]",–
O=C(NC(NC(=S)Nc1ccccc1O)C(Cl)(Cl)Cl)c1ccco1 (centres undefined),–,inactive: 0.23%
O=C(NCCN1CCOCC1)c1nn2c(c1Cl)NC(c1ccccc1)CC2C(F)(F)F (centres undefined),–,inactive: -5.51%
Cc1ccc(C(=O)C[n+]2cccc3cc(C)ccc32)cc1,"inconclusive: 18.3 µM [inhibitor, single point]",–
CCOc1ccc(NC(=O)CN2C(=O)c3ccccc3C2=O)cc1,"inconclusive: 7.3 µM [activator, partial curve, poor fit]",–
CC(=O)c1c(C)[nH]c(C(=O)COC(=O)c2ccc(C)s2)c1C,"inconclusive: 18.3 µM [activator, partial curve, poor fit]",–
Cc1ccccc1NC(=O)/C(C#N)=C/c1ccccc1C(F)(F)F,"inconclusive: 18.4 µM [activator, single point]",–
Cc1nc(-c2ccc(NS(=O)(=O)c3ccccc3)cc2)cs1,–,inactive: -0.488%
Cc1c(/C=N/NC(=O)c2ccc3c(c2)OCO3)cnn1C,–,inactive: 5.34%
Cc1ccc(/C(N)=N/OC(=O)C(C)c2ccc([N+](=O)[O-])cc2)cc1 (centres undefined),–,inactive: -0.413%
O=C(c1cc(-c2ccc(Cl)c(Cl)c2)on1)N1CCCCCC1,"inconclusive: 18.3 µM [activator, partial curve]",–
Cc1ccc(C(=O)n2c3ccccc3c3ccccc32)cc1,–,inactive: 9.73%
N#C/C(=C\C=C\c1ccccc1)c1nc(-c2ccc3c(c2)OCO3)cs1,–,inactive: 6.5%
CCCNC(=S)Nc1ccc(CC(=O)OC)cc1,–,inactive: 8.61%
CCc1cc(=O)oc2cc(C)cc(OCC(=O)NC3CCN(Cc4ccccc4)CC3)c12,"inconclusive: 18.3 µM [inhibitor, partial curve, poor fit]",–
N#CCC(=O)NNC(=S)NC(=O)C(c1ccccc1)c1ccccc1,"inconclusive: 20.6 µM [inhibitor, single point]",–

# Reprinted at random: 2 records from the list
Compound,Potency,"activity change, negative = inhibition"
CC(=O)c1c(C)[nH]c(C(=O)COC(=O)c2ccc(C)s2)c1C,"inconclusive: 18.3 µM [activator, partial curve, poor fit]",–
CCOc1ccc(NC(=O)CN2C(=O)c3ccccc3C2=O)cc1,"inconclusive: 7.3 µM [activator, partial curve, poor fit]",–

# Additional results.

Compound,Potency,"activity change, negative = inhibition"
CC(C)c1ccc(N=C2NN=C(c3cccs3)CS2)cc1,"inconclusive: 6.51 µM [activator, full curve]",–
CC(=O)Nc1ccc(S(=O)(=O)Nc2nc3ccccc3nc2Nc2ccc(O)cc2)cc1,"inconclusive: 23.1 µM [activator, single point]",–
COc1ccc(S(=O)(=O)Nc2c(C(=O)O)[nH]c3ccc(OC)cc23)c(OC)c1,–,inactive: -1.32%
O=C(CSC1=NS(=O)(=O)c2ccccc2N1)Nc1ccccc1F,–,inactive: 13%
CCOc1ccc(/C=N/NC(=O)CN2CCSCC2)cc1,"inconclusive: 23.1 µM [activator, partial curve, poor fit]",–
CN(Cc1ccccc1)c1ncc(C=O)s1,"inconclusive: 25.9 µM [activator, partial curve, poor fit]",–
Cc1nnc(Nc2ccc(C(=O)N3CCOCC3)cc2)c2ccccc12,"inconclusive: 9.2 µM [inhibitor, single point]",–
OCCNc1nc(Nc2ccc(Br)cc2)nc2ccccc12,"inconclusive: 25.9 µM [inhibitor, single point]",–
Cc1ccc(NC(=S)N/N=C/c2c(Cl)cccc2Cl)c(C)c1,"inconclusive: 1.3 µM [inhibitor, single point]",–
COc1ccc(C(=O)CNc2ccccc2Br)cc1,"inconclusive: 20.6 µM [activator, partial curve]",–
O=C(NC12CC3CC(CC(C3)C1)C2)c1ccco1,"inconclusive: 14.1 µM [activator, single point]",–
O=C(N/N=C/c1c(F)c(F)c(F)c(F)c1F)c1ccc(Cn2cc(Br)cn2)o1,"inconclusive: 5.17 µM [inhibitor, partial curve, poor fit]",–
CC(=O)C1=C(c2cccc([N+](=O)[O-])c2)N(C(C)=O)n2c(C)nnc2S1,"inconclusive: 4.61 µM [inhibitor, full curve]",–
Cc1cccc(C(=O)NC(=S)NNC(=O)COc2ccc(Cl)cc2)c1,–,inactive: 6.31%
COc1ccc2c(c1O)Cc1ccccc1C2=O,"inconclusive: 10.3 µM [activator, partial curve]",–
O=C(CC1OC(=O)c2ccccc21)Nc1cc(Cl)ccc1N1CCOCC1 (centres undefined),active: 4.11 µM,–
CCC(=O)NC(=S)Nc1cccc(NC(=O)c2ccccc2)c1,"inconclusive: 20.6 µM [inhibitor, single point]",–
CCOC(=O)CSC1=C(C#N)C(c2ccc(OC)cc2)C2=C(CC(C)(C)CC2=O)N1 (centres undefined),"inconclusive: 29.1 µM [inhibitor, single point]",–
CCOC(=O)c1c(CS(=O)(=O)c2ccccc2)n(C)c2cc(Br)c(O)c(CN(C)C)c12,–,inactive: 3.97%
COc1ccc(NC(=O)[C@@H](NS(=O)(=O)c2cccc(Cl)c2)C(C)C)cc1S(=O)(=O)N1CCOCC1,–,inactive: 0%
CN(C)S(=O)(=O)c1ccc(Cl)c(NC(=O)COC(=O)C2CSC3(C)CCC(=O)N23)c1 (centres undefined),–,inactive: 3.43%
COc1ccc(CN2C(=O)c3ccccc3C2=O)cc1,–,inactive: -1.98%
COc1ccc2c3n(nc2c1)CCN=C3c1ccc(Cl)cc1,"inconclusive: 28.2 µM [activator, single point]",–
O=C(CN(C(=O)Cn1nnc(-c2ccccc2F)n1)c1cnc2ccccc2c1)NCC1CCCO1 (centres undefined),"inconclusive: 29.1 µM [inhibitor, single point]",–
